# Measured values published in the supplement of paper PMC4604168 (melanoma cell lines).
# The other results are listed elsewhere or left out. Single values are uncertain, as repeats are few or missing.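 Cells were imaged in 1,536-well plates, and nuclei stained with an antibody against cleaved PARP were counted against all DNA-stained nuclei to give the apoptosis fraction. Screening doses were chosen to leave most cells alive, and resting and induced cleaved-PARP levels differ strongly between cell lines.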
# What was measured:
# Assay in all cases: cleaved PARP positive nuclei fraction relative to DMSO control; melanoma cells; higher = more apoptosis
# Settings in all cases: library dose: low library concentration; 72 h
# [1] = system: CBRC034 (line from a melanoma biopsy)
# [2] = system: COLO792
# [3] = system: COLO800
# [4] = system: COLO829
# [5] = system: G361
# [6] = system: IPC-298
# [7] = system: IST-MEL1
# [8] = system: LOXIMVI
# [9] = system: MeWo
# [10] = system: RPMI7951
# [11] = system: RVH-421
# [12] = system: SkMel28
# [13] = system: SkMel30
# [14] = system: SkMel5
# [15] = system: UACC257
# [16] = system: UACC62
# [17] = system: LB2518-MEL
# [18] = system: MEL-HO
# [19] = system: MZ2-MEL
# [20] = system: SkMel2
SMILES,cleaved PARP positive nuclei fraction [1] [%],cleaved PARP positive nuclei fraction [2] [%],cleaved PARP positive nuclei fraction [3] [%],cleaved PARP positive nuclei fraction [4] [%],cleaved PARP positive nuclei fraction [5] [%],cleaved PARP positive nuclei fraction [6] [%],cleaved PARP positive nuclei fraction [7] [%],cleaved PARP positive nuclei fraction [8] [%],cleaved PARP positive nuclei fraction [9] [%],cleaved PARP positive nuclei fraction [10] [%],cleaved PARP positive nuclei fraction [11] [%],cleaved PARP positive nuclei fraction [12] [%],cleaved PARP positive nuclei fraction [13] [%],cleaved PARP positive nuclei fraction [14] [%],cleaved PARP positive nuclei fraction [15] [%],cleaved PARP positive nuclei fraction [16] [%],cleaved PARP positive nuclei fraction [17] [%],cleaved PARP positive nuclei fraction [18] [%],cleaved PARP positive nuclei fraction [19] [%],cleaved PARP positive nuclei fraction [20] [%]
"CC(C)(C)c1cnc(CSc2cnc(NC(=O)C3CCNCC3)s2)o1 + COc1cc2ncnc(Nc3ccc(Oc4ccccc4)cc3)c2cc1OC [SrcI1] (first compound 0.01 µM, partner dose 2 µM)",47.7,120,92.1,136,295,84.3,87.8,144,53,86.6,61.1,157,76.1,26,99.2,328,,,,
"Cn1nnc2c(C(N)=O)ncn2c1=O [temozolomide] + Cc1ccc(NC(=O)c2cccc(N(C)C)c2)cc1NC(=O)c1ccc(O)cc1 [ZM336372] (first compound 2 µM, partner dose 2 µM)",,67.5,72.6,59.7,125,80,101,72.3,149,95.6,32.6,39.2,82.6,62.7,37.6,288,52.2,34.6,104,72.1
"Cc1cc(N2CCOCC2)cc2[nH]c(-c3c(NC[C@@H](O)c4cccc(Cl)c4)cc[nH]c3=O)nc12 + CC(C)CCN1c2nc(Nc3cc(F)c(O)c(F)c3)ncc2N(C)C(=O)C1C [BID1870] (first compound 0.2 µM, partner dose 0.2 µM)",50.4,166,218,71.3,25.7,173,43.3,32.3,103,49.7,77.1,96.8,58.6,60,117,76.3,,,,
"OCc1c[nH]c2ccccc12 [Indole-3-carbinol] + O=C(Nc1cccc(Cl)c1)Nc1ncc(CCNc2ncnc3ccsc23)s1 [SNS314] (first compound 0.8 µM, partner dose 0.0008 µM)",,20.6,80.3,101,57.2,53.5,112,88.3,190,118,218,42.3,48.3,61.9,65.1,185,63.5,117,31,109
"C[C@]1(c2nc3c(C(N)=O)cccc3[nH]2)CCCN1 [Veliparib] + O=C(O)c1ccc(-c2c[nH]c3ncc(-c4ccccc4)cc23)cc1C1CCCC1 [GSK650394] (first compound 1.4 µM, partner dose 0.16 µM)",,84.1,99.3,165,123,66,37.8,124,101,51.8,57,66.8,88.2,148,71.1,164,71,223,58.9,111
"Cn1nnc2c(C(N)=O)ncn2c1=O [temozolomide] + CCN(CC)CCCCNc1ncc2cc(-c3cc(OC)cc(OC)c3)c(NC(=O)NC(C)(C)C)nc2n1 [PD173074] (first compound 2 µM, partner dose 0.1 µM)",81.7,106,138,149,193,244,247,80.6,134,87.1,82.2,44,118,169,159,87.7,,,,
"Cc1nc(Nc2ncc(C(=O)Nc3c(C)cccc3Cl)s2)cc(N2CCN(CCO)CC2)n1 [dasatanib] + CN(NC(=O)CC(=O)NN(C)C(=S)c1ccccc1)C(=S)c1ccccc1 [STA4783] (first compound 0.004 µM, partner dose 0.006 µM)",,375,93.7,161,157,47,89.4,145,111,84.7,106,77.5,91.9,71.8,139,214,147,165,56.5,49.9
"Cn1nnc2c(C(N)=O)ncn2c1=O [temozolomide] + CN(C)S(=O)(=O)c1ccc2c(c1)/C(=C/c1cc3c([nH]1)CCCC3)C(=O)N2 [SU6656] (first compound 2 µM, partner dose 0.4 µM)",,92.3,87.4,155,149,105,107,42.4,98.5,44.9,124,71.6,77.2,77.2,35.1,78,48.7,73.1,128,43.9
"CO[C@@H]1[C@H](N(C)C(=O)c2ccccc2)C[C@H]2O[C@]1(C)n1c3ccccc3c3c4c(c5c6ccccc6n2c5c31)C(=O)NC4 [Midostaurin] + Cn1cncc1[C@@](N)(c1ccc(Cl)cc1)c1ccc2c(c1)c(-c1cccc(Cl)c1)cc(=O)n2C [tipifarnib] (first compound 0.08 µM, partner dose 0.01 µM)",,173,90.3,45.7,205,170,228,37.8,42.4,484,82.1,162,76.5,73.1,188,207,291,35.8,183,141
"O=C(CCCCCCC(=O)Nc1ccccc1)NO [vorinostat] + CN(NC(=O)CC(=O)NN(C)C(=S)c1ccccc1)C(=S)c1ccccc1 [STA4783] (first compound 0.08 µM, partner dose 0.006 µM)",,256,221,190,212,88.6,114,49.1,72.7,52.4,44.7,249,83.7,345,130,110,298,69.4,33,56.7
"Nc1cccc2c1CN(C1CCC(=O)NC1=O)C2=O (stereo not drawn) [lenalidomide] + OCCn1cc(-c2cnc3nnn(Cc4ccc5ncccc5c4)c3n2)cn1 [PF04217903] (first compound 1 µM, partner dose 1 µM)",,36.6,112,76.4,112,197,40.9,32.3,53.1,34.7,136,67.9,59.8,25,56,33.2,41,139,30.2,86.6
"Cn1c(Nc2ccc(C(F)(F)F)cc2)nc2cc(Oc3ccnc(-c4ncc(C(F)(F)F)[nH]4)c3)ccc21 + COc1cc(Nc2ncc(F)c(Nc3ccc4c(n3)NC(=O)C(C)(C)O4)n2)cc(OC)c1OC [Tamatinib] (first compound 0.08 µM, partner dose 0.4 µM)",,251,52.3,103,196,357,165,23.3,89.2,197,186,69.4,67.2,69.8,265,70.3,154,71.7,119,182
"CC(=O)c1c(C)c2cnc(Nc3ccc(N4CCNCC4)cn3)nc2n(C2CCCC2)c1=O [palbociclib] + CN(C)S(=O)(=O)c1ccc2c(c1)/C(=C/c1cc3c([nH]1)CCCC3)C(=O)N2 [SU6656] (first compound 0.04 µM, partner dose 0.4 µM)",,172,129,186,101,168,115,53.1,74.7,211,81.2,160,109,138,353,381,113,265,145,13.5
"CC(C)(C)c1cnc(CSc2cnc(NC(=O)C3CCNCC3)s2)o1 + O=S(=O)(c1ccccc1)N(CC(F)(F)F)c1ccc(C(O)(C(F)(F)F)C(F)(F)F)cc1 [T0901317] (first compound 0.01 µM, partner dose 1.4 µM)",166,116,157,58.6,81.8,89,92.6,61.3,59.3,104,64.2,64.7,38.8,48.2,73.8,119,,,,
"C[C@]1(c2nc3c(C(N)=O)cccc3[nH]2)CCCN1 [Veliparib] + Cn1cncc1[C@@](N)(c1ccc(Cl)cc1)c1ccc2c(c1)c(-c1cccc(Cl)c1)cc(=O)n2C [tipifarnib] (first compound 1.4 µM, partner dose 0.01 µM)",,123,60,67.4,113,147,318,61.3,109,90.2,251,72.3,78.9,224,205,177,113,109,89.4,168
"CC(=O)c1c(C)c2cnc(Nc3ccc(N4CCNCC4)cn3)nc2n(C2CCCC2)c1=O [palbociclib] + CN(NC(=O)CC(=O)NN(C)C(=S)c1ccccc1)C(=S)c1ccccc1 [STA4783] (first compound 0.04 µM, partner dose 0.006 µM)",,150,307,50.3,110,54.7,63.6,157,290,51.5,215,176,93.3,163,62.4,80.7,154,70.5,92.6,42.9
"Cc1ccc(NC(=O)c2cccc(N(C)C)c2)cc1NC(=O)c1ccc(O)cc1 + Oc1cc(-c2nc(-c3ccccc3)[nH]c2-c2ccncc2)ccc1Cl [L779450] (first compound 2 µM, partner dose 0.2 µM)",94.3,72,50.2,87.2,75.7,52.2,59.3,88.3,238,84.1,143,162,25.7,18,81.4,114,,,,

# Single values from the results shown.
# cleaved PARP positive nuclei fraction [13] [%], Cn1nnc2c(C(N)=O)ncn2c1=O [temozolomide] + Cc1ccc(NC(=O)c2cccc(N(C)C)c2)cc1NC(=O)c1ccc(O)cc1 [ZM336372] (first compound 2 µM, partner dose 2 µM) reads 82.6
# cleaved PARP positive nuclei fraction [10] [%], Cn1nnc2c(C(N)=O)ncn2c1=O [temozolomide] + CN(C)S(=O)(=O)c1ccc2c(c1)/C(=C/c1cc3c([nH]1)CCCC3)C(=O)N2 [SU6656] (first compound 2 µM, partner dose 0.4 µM) reads 44.9
